Reference: paper PMC11540758
Results are given in words; binding and its absence hold for the method and conditions named. Binding seen in cells or lysates may run through a third protein.

Biological target: StGPT1-GFP (potato (Solanum tuberosum))
Test: co-IP

binding: no binding
B1: Arabidopsis ATL1 (enzyme, UniProt P93823 1-381)
chain: MDLTDRRNPFNNLVFPPPPPPPSTTFTSPIFPRTSSSGTNFPILAIAVIGILATAFLLVSYYIFVIKCCLNWHQIDIFRRRRRSSDQNPLMIYSPHEVNRGLDESAIRAIPVFKFKKRDVVAGEEDQSKNSQECSVCLNEFQEDEKLRIIPNCCHVFHIDCIDIWLQGNANCPLCRTSVSCEASFTLDLISAPSSPRENSPHSRNRNLEPGLVLGGDDDFVVIELGASNGNNRESVRNIDFLTEQERVTSNEVSTGNSPKSVSPLPIKFGNRGMYKKERKFHKVTSMGDECIDTRGKDGHFGEIQPIRRSISMDSSVDRQLYLAVQEEISRRNRQIPVAGDGEDSSSSGGGNSRVMKRCFFSFGSSRTSKSSSILPVYLEP
